Measurements as given in PubChem BioAssay AID1671190 (National Center for Advancing Translational Sciences (NCATS), 2021).
Values joined by “and” are separate entries in the source; they are usually repeats but may differ in a detail not shown here. Equal values may be shown once. Hit rate of the full screen: of about 580,000 compounds, about 6,100 (1.1%) were called active. Another 15% or so got no clear call; they are omitted. The call rests on the fitted dose curve; in most records, active means well fitted inhibition curve with a large enough effect; inconclusive means small, poorly fitted or top-dose-only effect, or another doubt; inactive means no such curve, though single readings can be large or run the other way. This is a selection; strong and weak results do not stand in their true shares. Where no call is shown, the source filed none.

Amino acid sequences for entries named in this document (tags omitted).
UniProt P18054, whole entry, looked up: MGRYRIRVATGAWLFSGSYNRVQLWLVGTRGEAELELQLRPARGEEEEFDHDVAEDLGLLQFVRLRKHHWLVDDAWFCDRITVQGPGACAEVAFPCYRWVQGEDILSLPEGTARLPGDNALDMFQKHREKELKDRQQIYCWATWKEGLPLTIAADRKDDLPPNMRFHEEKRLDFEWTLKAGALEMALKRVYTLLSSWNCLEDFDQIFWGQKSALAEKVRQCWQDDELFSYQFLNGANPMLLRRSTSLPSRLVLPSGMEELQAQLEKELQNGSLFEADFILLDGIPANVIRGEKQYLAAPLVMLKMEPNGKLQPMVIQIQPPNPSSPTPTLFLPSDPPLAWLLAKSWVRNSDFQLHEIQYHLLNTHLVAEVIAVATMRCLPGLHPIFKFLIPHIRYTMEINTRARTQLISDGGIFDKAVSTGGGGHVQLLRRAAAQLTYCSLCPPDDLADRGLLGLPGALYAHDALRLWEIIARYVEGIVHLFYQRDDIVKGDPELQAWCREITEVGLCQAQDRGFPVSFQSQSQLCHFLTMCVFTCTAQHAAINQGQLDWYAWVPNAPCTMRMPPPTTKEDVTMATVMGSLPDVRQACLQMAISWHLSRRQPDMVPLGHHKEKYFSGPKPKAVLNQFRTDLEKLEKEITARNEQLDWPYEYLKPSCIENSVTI

Molecular target: Polyunsaturated fatty acid lipoxygenase ALOX12 (Homo sapiens) (UniProt P18054)
Test: Primary qHTS assay for inhibitors of human arachidonate 12S-lipoxygenase (ALOX12): Round 2
Settings: purified 12hLO, xylenol orange hydroperoxide absorbance; activity change, negative = inhibition: at 0.00344 µM
Summary of the method: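 Purified human 12hLO (150 nM final) in 25 mM Hepes, 0.01% Triton X-100, pH 7.0 was preincubated 15 min at room temperature with compound. Then 40 uM arachidonic acid was added, 30 min. Hydroperoxide was read by Fe-XO absorbance ratio 573/405 nm.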
On the % scale 0 is the no-effect control and ±100 the full control effect; potency means the concentration at half of the fitted maximal effect.

Which activity change, negative = inhibition does the source give for `CCCCCCCCCCCCCCCCCC(=O)OCC(O)CO` (centres undefined) here?
The activity change, negative = inhibition was 5.15%.

How did the Potency turn out when `CC1(C)CC(=O)c2cc(-c3nc(-c4ccc(F)cc4)cs3)c(=O)[nH]c2C1` was run?
Its Potency is active: 50.1 µM.

`NS(=O)(=O)c1ccc(NC(=O)CCC(=O)O)cc1` was tested. Which activity change, negative = inhibition did it give?
Its activity change, negative = inhibition is -8.86%.

`C[N+]12CCC(CC1)C(OC(=O)C(O)(c1ccccc1)c1ccccc1)C2` (centres undefined) was tested. Which activity change, negative = inhibition did it give?
Its activity change, negative = inhibition is 24.9%.

How did the activity change, negative = inhibition turn out when `Nc1ncnc2c1ncn2[C@@H]1O[C@H](COP(=O)(O)O)[C@@H](O)[C@H]1O` was run?
The activity change, negative = inhibition was 8.18%.

How did the activity change, negative = inhibition turn out when `O=C1Nc2cc(Cl)ccc2Oc2ccccc21` was run?
Its activity change, negative = inhibition is 21.7%.

Which Potency does the source give for `Cc1cc(C(=O)OCC(=O)Nc2sc3c(c2C#N)CCC(C)C3)c2ccccc2n1` (centres undefined) here?
Its Potency is active: 39.8 µM.

Which activity change, negative = inhibition does the source give for `CO[C@]12C[C@@H](COC(=O)c3cncc(Br)c3)CN(C)[C@@H]1Cc1cn(C)c3cccc2c13` here?
Its activity change, negative = inhibition is -30.1%.

`COc1cc(C(=O)N2CCOCC2)cc(OC)c1OC` was tested. Which activity change, negative = inhibition did it give?
Its activity change, negative = inhibition is -24.4%.

For `CC(=O)OCC(=O)[C@@]1(O)CC[C@H]2[C@@H]3CCC4=CC(=O)C=C[C@]4(C)[C@@]3(F)[C@@H](O)C[C@@]21C`, which activity change, negative = inhibition is on record?
The activity change, negative = inhibition was 28.5%.

Which activity change, negative = inhibition does the source give for `C#C[C@]1(O)CC[C@H]2[C@@H]3[C@H](C)CC4=C(CCC(=O)C4)[C@H]3CC[C@@]21C` here?
Its activity change, negative = inhibition is -26.2%.

Which activity change, negative = inhibition does the source give for `O=C(O)COc1nn(Cc2ccccc2)c2ccccc12` here?
Its activity change, negative = inhibition is 38.8%.

With `CC1(C)C2CC=C(/C=N/NC(=S)NCCc3ccccc3)C1C2` (centres undefined) as the molecule, how does the Potency read?
Its Potency is active: 44.7 µM.

How did the activity change, negative = inhibition turn out when `CN(C)CCCOc1nn(Cc2ccccc2)c2ccccc12` was run?
Its activity change, negative = inhibition is -20.9%.

How did the Potency turn out when `CCc1ccc(-c2cc(C(=O)NCc3ccco3)c3ccccc3n2)s1` was run?
Its Potency is active: 17.8 µM and active: 35.5 µM.

`O=C(O)c1ccccc1NCCc1ccccc1` was tested. Which activity change, negative = inhibition did it give?
Its activity change, negative = inhibition is -16%.

How did the Potency turn out when `CSCC[C@@H]1NC(=O)c2cc(NC(=O)Cn3ccc4ccccc43)ccc2NC1=O` was run?
Its Potency is active: 35.5 µM.

How did the Potency turn out when `S=c1[nH]nc(CSCc2ccc(Cl)cc2Cl)n1-c1ccccc1` was run?
Its Potency is active: 28.2 µM.

For `CCCCCC(N)=O`, which activity change, negative = inhibition is on record?
The activity change, negative = inhibition was 42.8%.

With `CCN1CCN(c2ccc(S(=O)(=O)N3CCCCC3)cc2NC(=O)C(C)Oc2ccc(F)cc2)CC1` (centres undefined) as the molecule, how does the Potency read?
The Potency was active: 44.7 µM.

With `Oc1ccc(O)cc1` as the molecule, how does the activity change, negative = inhibition read?
Its activity change, negative = inhibition is -29.2%.

How did the activity change, negative = inhibition turn out when `COc1cc2nc(N3CCN(C(=O)C4CCCO4)CC3)nc(N)c2cc1OC` (centres undefined) was run?
The activity change, negative = inhibition was 21.8%.

How did the Potency turn out when `O=C(Nc1csnn1)c1csnn1` was run?
Its Potency is active: 10 µM.

How did the activity change, negative = inhibition turn out when `Cc1ccc(/C(=C\CN2CCCC2)c2ccccn2)cc1` was run?
Its activity change, negative = inhibition is 26.9%.

Which Potency does the source give for `COc1ccc(C(=O)/C(=C/c2ccco2)c2nc3ccccc3o2)cc1` here?
Its Potency is active: 14.1 µM.

Which Potency does the source give for `CC(=O)Nc1ccc(NC(=O)c2cc(-c3ccco3)nc3ccccc23)cc1` here?
The Potency was active: 11.2 µM.

Which activity change, negative = inhibition does the source give for `Cc1ccc(C(C)C)cc2c(C)ccc1-2` here?
The activity change, negative = inhibition was -13.3%.

How did the activity change, negative = inhibition turn out when `CC(C)=CCC/C(C)=C/CC/C(C)=C/CCC(=O)OC/C=C(\C)CCC=C(C)C` was run?
The activity change, negative = inhibition was -2.5%.

With `CC(=O)Nc1ccc(S(=O)(=O)Nc2ccc([N+](=O)[O-])cc2)cc1` as the molecule, how does the activity change, negative = inhibition read?
The activity change, negative = inhibition was -10.6%.

`Cc1ccc(C(=O)Nc2ccc(S(=O)(=O)O)c3cc(S(=O)(=O)O)cc(S(=O)(=O)O)c23)cc1NC(=O)c1cccc(NC(=O)Nc2cccc(C(=O)Nc3cc(C(=O)Nc4ccc(S(=O)(=O)O)c5cc(S(=O)(=O)O)cc(S(=O)(=O)O)c45)ccc3C)c2)c1` was tested. Which activity change, negative = inhibition did it give?
The activity change, negative = inhibition was 10.9%.

`CC(=O)Nc1c(I)c(NC(C)=O)c(I)c(C(=O)O)c1I` was tested. Which activity change, negative = inhibition did it give?
Its activity change, negative = inhibition is 20.6%.

`CC(=O)NC1(C)CCCN(Cc2cccc(-c3ccc4c(ccn4C)c3)c2)C1` (centres undefined) was tested. Which Potency did it give?
The Potency was active: 35.5 µM.

For `Clc1cccc(Cc2c(-c3ccco3)nc3c4ccccc4ccn23)c1`, which Potency is on record?
The Potency was active: 10 µM.

With `CC(C)c1ccc(NC(=O)CSc2nc3ccccc3nc2N2CCCC2)cc1` as the molecule, how does the Potency read?
Its Potency is active: 6.31 µM.

How did the Potency turn out when `COc1ccc(Br)cc1C1CC(=O)N2CN(C)CSC2=C1C#N` (centres undefined) was run?
The Potency was active: 28.2 µM.

Which activity change, negative = inhibition does the source give for `C=CCn1c(=O)n([C@@H]2O[C@H](CO)[C@@H](O)[C@H]2O)c2nc(N)[nH]c(=O)c21` here?
The activity change, negative = inhibition was 5.6%.

Which activity change, negative = inhibition does the source give for `CN1CCN(C2=Nc3ccccc3Sc3ccc(Cl)cc32)CC1` here?
The activity change, negative = inhibition was 1.69%.

For `CCC1=C[C@@H]2CN(C1)Cc1c([nH]c3ccccc13)[C@@](C(=O)OC)(c1cc3c(cc1OC)N(C)[C@H]1[C@@](O)(C(=O)OC)[C@H](OC(C)=O)[C@]4(CC)C=CCN5CC[C@]31[C@@H]54)C2`, which activity change, negative = inhibition is on record?
The activity change, negative = inhibition was -11.1%.

How did the Potency turn out when `Cc1ccc(NS(=O)(=O)c2ccc(C(=O)NNC(=O)c3ccccc3O)cc2)cc1` was run?
Its Potency is active: 44.7 µM.

How did the activity change, negative = inhibition turn out when `CS(=O)(=O)Nc1ccc([N+](=O)[O-])cc1Oc1ccccc1` was run?
Its activity change, negative = inhibition is 18.8%.

Which activity change, negative = inhibition does the source give for `CCOc1ccccc1C(N)=O` here?
The activity change, negative = inhibition was -17.1%.

For `COc1cccc(/C(O)=C2\C(=O)C(=O)N(c3ccccn3)C2c2cccc(Br)c2)c1` (centres undefined), which Potency is on record?
The Potency was active: 35.5 µM.

How did the activity change, negative = inhibition turn out when `NS(=O)(=O)c1ccc(C(=O)O)cc1` was run?
The activity change, negative = inhibition was 29.2%.

Which activity change, negative = inhibition does the source give for `O=C(O)P(=O)(O)O` here?
The activity change, negative = inhibition was -50.1%.

`CCN(CC)CCCC(C)Nc1c2ccc(Cl)cc2nc2ccc(OC)cc12` (centres undefined) was tested. Which activity change, negative = inhibition did it give?
Its activity change, negative = inhibition is -13%.

Which activity change, negative = inhibition does the source give for `CN(CCOc1ccc(NS(C)(=O)=O)cc1)CCc1ccc(NS(C)(=O)=O)cc1` here?
The activity change, negative = inhibition was -85.6%.

How did the activity change, negative = inhibition turn out when `C#C[C@]1(O)CC[C@H]2[C@@H]3CCc4cc(OC)ccc4[C@H]3CC[C@@]21C` was run?
Its activity change, negative = inhibition is 9.54%.

With `CC1=C(C)C(=O)C(CCCCC#CCCCC#CCO)=C(C)C1=O` as the molecule, how does the activity change, negative = inhibition read?
Its activity change, negative = inhibition is 26.4%.

With `O=c1c(-c2ccc(O)cc2)coc2cc(O)cc(O)c12` as the molecule, how does the activity change, negative = inhibition read?
The activity change, negative = inhibition was 6.99%.
